Experimental data from publication PMC8113569.
These are yes or no findings as the source states them, for the method shown. Binding seen in cells or lysates may run through a third protein. Some entries that bind do so weakly or less than the wild type.

Target: T1, IRF3, endogenous mouse (mouse (endogenous in BMDC)) (UniProt P70671)
T1 sequence: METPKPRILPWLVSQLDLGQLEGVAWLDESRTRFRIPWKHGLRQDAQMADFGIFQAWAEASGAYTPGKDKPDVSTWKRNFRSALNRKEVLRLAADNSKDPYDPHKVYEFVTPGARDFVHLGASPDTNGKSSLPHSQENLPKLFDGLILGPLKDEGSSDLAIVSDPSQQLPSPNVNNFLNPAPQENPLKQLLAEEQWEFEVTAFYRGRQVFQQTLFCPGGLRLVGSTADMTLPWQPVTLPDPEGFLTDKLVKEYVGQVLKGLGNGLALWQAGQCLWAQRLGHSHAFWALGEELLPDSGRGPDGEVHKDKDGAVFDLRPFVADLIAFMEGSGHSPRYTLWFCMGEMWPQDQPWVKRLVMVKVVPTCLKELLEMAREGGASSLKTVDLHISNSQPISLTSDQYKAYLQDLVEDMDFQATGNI
Test: co-IP

B1: mitochondrial antiviral-signaling protein (MAVS), endogenous mouse (protein, UniProt Q8VCF0 1-503)
chain: MTFAEDKTYKYIRDNHSKFCCVDVLEILPYLSCLTASDQDRLRASYRQIGNRDTLWGLFNNLQRRPGWVEVFIRALQICELPGLADQVTRVYQSYLPPGTSLRSLEPLQLPDFPAAVSGPSAFAPGHNIPDHGLRETPSCPKPVQDTQPPESPVENSEQLLQTNSGAVARMSGGSLIPSPNQQALSPQPSREHQEQEPELGGAHAANVASVPIATYGPVSPTVSFQPLPRTALRTNLLSGVTVSALSADTSLSSSSTGSAFAKGAGDQAKAATCFSTTLTNSVTTSSVPSPRLVPVKTMSSKLPLSSKSTAAMTSTVLTNTAPSKLPSNSVYAGTVPSRVPASVAKAPANTIPPERNSKQAKETPEGPATKVTTGGNQTGPNSSIRSLHSGPEMSKPGVLVSQLDEPFSACSVDLAISPSSSLVSEPNHGPEENEYSSFRIQVDESPSADLLGSPEPLATQQPQEEEEHCASSMPWAKWLGATSALLAVFLAVMLYRSRRLAQ
With B1 the binding was “binds”.
